Results on one substance are retold here after PMC8162949.

Results are given in words; binding and its absence hold for the method and conditions named.

The experiment concerns the target haloalkane dehalogenase DhaA115 (Rhodococcus rhodochrous) (UniProt P0A3G2). Nature of the experiment: SAXS; DhaA115 in solution at 8.5, 6.3, 4.3 and 2.2 mg ml^-1, 293 K, 41 mM K2HPO4, 9 mM KH2PO4, pH 7.5; curves of the concentration series merged; fitted against the crystal monomer (chi^2 = 1.25) and the crystal dimer (chi^2 = 50.3); both purified.

Consider “haloalkane dehalogenase DhaA115 (from UniProt P0A3G2 1-293) (enzyme)”, for which the binding entry was “no binding (tested: 8.5, 6.3, 4.3 and 2.2 mg ml^-1)”.
